The numbers were not newly measured in US20250152616A1, “COMPOSITIONS FOR AND METHODS OF TREATING, PREVENTING, AND/OR MITIGATING PAIN” (Duke University, priority 2022, published 2025), which cites them from elsewhere.

SMILES strings stand for the structures. Where only a bound is given, the exact number is not on record here.

For the data set the following is noted: Brink H L, et al. (2015); cited from earlier work.

Regarding `Nc1ncnc2c1ncn2[C@@H]1O[C@H](CO)[C@@H](O)[C@H]1O` [adenosine], the “half-life in the circulation” value is listed as under 10 s.
